Data taken from PubChem BioAssay AID330 (DTP/NCI, 2004).
The list is a part of this screen's results and no random one: it gathers tests that were run many times, whatever their T/C, doses with no T/C, and many T/C values between a quarter and a half above the control. Other doses and runs of a compound stand elsewhere. T/C: endpoint of the treated group in % of that of the vehicle group. Some doses have a count of surviving animals in place of a T/C: the source holds a T/C of zero for them, seemingly a mark for toxic or unscored doses. Some survivor counts are full or nearly so, which does not show that the dose was tolerated: the source hardly ever lists a survival T/C far under the control, and the zero likely stands for such cases as well. Survivors were counted at the toxicity check, usually on the fifth day, unless a day is given; later deaths do not show. Schedule codes are those of the source, read here as Q, the interval in days (D) or hours (H), X, the number of doses. Some doses were run more than once; their values stand side by side, smallest first. Brackets with × stand for listed records that agree. For survival time, the PubChem record calls one and a half times the control and up active, and a quarter to a half above the control has no call in these data; cut-offs in other NCI protocols can differ. Some T/C values carry the count of animals alive at the toxicity check (mostly the fifth day); where none is given, no animal had died by that day.

Test system: P388 leukemia ip, CD2F1 mice, survival T/C
Experiment: NCI In Vivo Anticancer Drug Screen. Data for tumor model P388 Leukemia (intraperitoneal) in CD2F1 (CDF1) mice
Conditions: T/C endpoint: median survival time, higher T/C = longer survival
[1] = dose: 16.0 mg/kg/injection, schedule: Q01DX009 (ip), vehicle: water

For COc1cccc2c1C(=O)c1c(O)c3c(c(O)c1C2=O)C[C@@](O)(/C(C)=N/NC(=O)c1ccccc1)C[C@@H]3OC1CC(N)C(O)C(C)O1 (stereo partly drawn), the T/C (dose: 0.25 mg/kg/injection, schedule: Q01DX009 (ip), vehicle: water) was 102, 106, 109, 120, 123, 127, 135 (2×), 136, 143, 149, 153, 157, 158 % of control, the T/C (dose: 0.5 mg/kg/injection, schedule: Q01DX009 (ip), vehicle: water, evaluated on day 30) was 110, 111, 125, 126 (2×), 129, 136, 137, 138, 141, 146, 148, 149, 151, 153, 155, 172 % of control and the T/C (dose: 0.5 mg/kg/injection, schedule: Q01DX009 (ip), vehicle: water, evaluated on day 35) was 148 % of control. For the same compound, the T/C (dose: 0.5 mg/kg/injection, schedule: Q01DX009 (ip), vehicle: water, evaluated on day 45) was 131 % of control, the T/C (dose: 1.0 mg/kg/injection, schedule: Q01DX005 (ip), vehicle: suspension in saline) was 131 % of control and the T/C (dose: 1.0 mg/kg/injection, schedule: Q01DX009 (ip), vehicle: water, evaluated on day 30) was 127, 132, 136, 139, 142, 145, 146, 150 (2×), 152, 153, 154, 155, 156, 157, 165, 180 % of control. The T/C (dose: 1.0 mg/kg/injection, schedule: Q01DX009 (ip), vehicle: water, evaluated on day 35) was 169 % of control, the T/C (dose: 1.0 mg/kg/injection, schedule: Q01DX009 (ip), vehicle: water, evaluated on day 45) was 134 % of control and the T/C (dose: 1.0 mg/kg/injection, schedule: Q01DX009 (ip), vehicle: water, evaluated on day 60) was 145 % of control. The T/C (dose: 1.0 mg/kg/injection, schedule: Q04DX003 (ip), vehicle: water) was 135 % of control, the T/C (dose: 1.08 mg/kg/injection, schedule: Q01DX009 (ip), vehicle: saline) was 125 % of control and the T/C (dose: 1.3 mg/kg/injection, schedule: Q01DX001 (ip), vehicle: water) was 135 % of control. For the same compound, the T/C (dose: 1.8 mg/kg/injection, schedule: Q01DX001 (ip), vehicle: water) was 138 % of control, the T/C (dose: 1.8 mg/kg/injection, schedule: Q01DX009 (ip), vehicle: saline) was 141 % of control [9 of 10 alive] and the T/C (dose: 1.94 mg/kg/injection, schedule: Q04DX003 (ip), vehicle: water) was 147 % of control. The T/C (dose: 2.0 mg/kg/injection, schedule: Q01DX005 (ip), vehicle: suspension in saline) was 137 % of control, the T/C (dose: 2.0 mg/kg/injection, schedule: Q01DX009 (ip), vehicle: water, evaluated on day 30) was 132, 140, 142, 145, 148, 155, 160, 163, 164, 165, 169, 170, 172, 173, 180, 182, 184 % of control and the T/C (dose: 2.0 mg/kg/injection, schedule: Q01DX009 (ip), vehicle: water, evaluated on day 35) was 194 % of control. The T/C (dose: 2.0 mg/kg/injection, schedule: Q01DX009 (ip), vehicle: water, evaluated on day 45) was 166 % of control, the T/C (dose: 2.0 mg/kg/injection, schedule: Q01DX009 (ip), vehicle: water, evaluated on day 60) was 164 % of control and the T/C (dose: 2.4 mg/kg/injection, schedule: Q01DX001 (ip), vehicle: water) was 148 % of control. For the same compound, the T/C (dose: 4.0 mg/kg/injection, schedule: Q01DX005 (ip), vehicle: suspension in saline) was 146 % of control, the T/C (dose: 4.0 mg/kg/injection, schedule: Q01DX005 (iv), vehicle: suspension in saline) was 135 % of control and the T/C (dose: 4.0 mg/kg/injection, schedule: Q01DX009 (ip), vehicle: water, evaluated on day 30) was 89, 104, 133, 152, 155, 165, 166, 169, 170, 175, 184, 185, 190, 194, 198, 200, 209 % of control. The T/C (dose: 4.0 mg/kg/injection, schedule: Q01DX009 (ip), vehicle: water, evaluated on day 35) was 287 % of control, the T/C (dose: 4.0 mg/kg/injection, schedule: Q01DX009 (ip), vehicle: water, evaluated on day 45) was 186 % of control and the T/C (dose: 4.0 mg/kg/injection, schedule: Q01DX009 (ip), vehicle: water, evaluated on day 60) was 182 % of control. For the same compound, the T/C (dose: 5.0 mg/kg/injection, schedule: Q01DX009 (ip), vehicle: saline) was 136 % of control, the T/C (dose: 6.0 mg/kg/injection, schedule: Q01DX001 (ip), vehicle: clinical formulation) was 144 % of control and the T/C (dose: 6.0 mg/kg/injection, schedule: Q04DX003 (ip), vehicle: water) was 126 % of control. For the same compound, the T/C (dose: 8.0 mg/kg/injection, schedule: Q01DX005 (iv), vehicle: saline) was 126 % of control [5 of 6 alive], the T/C (dose: 8.0 mg/kg/injection, schedule: Q01DX009 (ip), vehicle: water, evaluated on day 30) was 89, 100, 103, 111, 137, 140, 147, 181, 184, 186, 205, 235, 245 (2×), 247 % of control and the T/C (dose: 8.0 mg/kg/injection, schedule: Q01DX009 (ip), vehicle: water, evaluated on day 35) was 95 % of control. For the same compound, the T/C (dose: 8.0 mg/kg/injection, schedule: Q01DX009 (ip), vehicle: water, evaluated on day 45) was 228 % of control, the T/C (dose: 8.0 mg/kg/injection, schedule: Q01DX009 (ip), vehicle: water, evaluated on day 60) was 216 % of control and the survivor count (dose: 8.0 mg/kg/injection, schedule: Q01DX009 (ip), vehicle: water) was 6 of 6. The T/C (dose: 12.0 mg/kg/injection, schedule: Q04DX003 (ip), vehicle: water) was 142 % of control, the survivor count (dose: 13.9 mg/kg/injection, schedule: Q01DX009 (ip), vehicle: saline) was 9 of 10 and the T/C (dose: 15.0 mg/kg/injection, schedule: Q04DX003 (ip), vehicle: water) was 127 % of control. The T/C (dose: 16.0 mg/kg/injection, schedule: Q01DX005 (ip), vehicle: saline) was 131 % of control, the survivor count (dose: 16.0 mg/kg/injection, schedule: Q01DX009 (ip), vehicle: other) was 10 of 10 and the T/C [1] was 93, 184, 192, 227 % of control. The survivor count [1] was 10 of 10 and 6 of 6 (2×), the T/C (dose: 16.0 mg/kg/injection, schedule: Q04DX003 (ip), vehicle: water) was 138 % of control and the survivor count (dose: 22.2 mg/kg/injection, schedule: Q04DX003 (ip), vehicle: saline) was 9 of 10. The T/C (dose: 25.0 mg/kg/injection, schedule: Q04DX003 (ip), vehicle: saline) was 125 % of control and the survivor count (dose: 37.0 mg/kg/injection, schedule: Q01DX001 (ip), vehicle: saline) was 5 of 10.
In the case of O=[N+]([O-])c1ccc(-n2[nH]nnc2=S)cc1, the survivor count (dose: 400.0 mg/kg/injection, schedule: Q04DX003 (ip), vehicle: saline with Tween-80) is reported as 0 of 6 and 2 of 6.
In the case of C=CCC1CCSC1=O (stereo not drawn), the T/C (dose: 50.0 mg/kg/injection, schedule: Q04DX003 (ip), vehicle: saline with Tween-80) is reported as 133 % of control and the T/C (dose: 100.0 mg/kg/injection, schedule: Q04DX003 (ip), vehicle: saline with Tween-80) is reported as 135 % of control.
In the case of CCN1C(=O)CC([Se]c2ccccc2)C1=O (stereo not drawn), the survivor count (dose: 200.0 mg/kg/injection, schedule: Q04DX003 (ip), vehicle: Klucel (hydroxypropylcellulose) (HPC)) is reported as 1 of 6 and 2 of 6 and the survivor count (dose: 400.0 mg/kg/injection, schedule: Q04DX003 (ip), vehicle: Klucel (hydroxypropylcellulose) (HPC)) is reported as 0 of 6.
For [Cl][Pd][Cl].[NH-]C(CC(N)=O)C(=O)O (stereo not drawn), the survivor count (dose: 100.0 mg/kg/injection, schedule: Q01DX005 (ip), vehicle: Klucel (hydroxypropylcellulose) (HPC)) was 3 of 6 and the survivor count (dose: 200.0 mg/kg/injection, schedule: Q01DX005 (ip), vehicle: Klucel (hydroxypropylcellulose) (HPC)) was 3 of 6.
For CCc1ccc(/C=C/c2ccc(O)c3ncccc23)[n+](C)c1, the T/C (dose: 4.0 mg/kg/injection, schedule: Q01DX009 (ip), vehicle: saline) was 127 % of control, the T/C (dose: 8.0 mg/kg/injection, schedule: Q01DX009 (ip), vehicle: saline) was 131 % of control and the T/C (dose: 16.0 mg/kg/injection, schedule: Q01DX009 (ip), vehicle: saline) was 136 % of control. The survivor count (dose: 32.0 mg/kg/injection, schedule: Q04DX003 (ip), vehicle: saline with Tween-80) was 6 of 6, the survivor count (dose: 64.0 mg/kg/injection, schedule: Q04DX003 (ip), vehicle: saline with Tween-80) was 0 of 6 and the survivor count (dose: 128.0 mg/kg/injection, schedule: Q04DX003 (ip), vehicle: saline with Tween-80) was 0 of 6.
CCN1/C(=C/C=C/C=C\C=C\c2sc3ccc4ccccc4c3[n+]2CC)Sc2ccc3ccccc3c21 was tested, and the T/C (dose: 3.12 mg/kg/injection, schedule: Q04DX002 (ip), vehicle: saline with Tween-80) was 138 % of control, the T/C (dose: 25.0 mg/kg/injection, schedule: Q04DX002 (ip), vehicle: saline with Tween-80) was 125 % of control and the survivor count (dose: 50.0 mg/kg/injection, schedule: Q04DX002 (ip), vehicle: saline with Tween-80) was 0 of 6 and 2 of 6.
